{"source": "PubChem BioAssay AID1508597 (Cure First, 2020)", "purpose": "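Survival screen with siRNA in ovarian cancer cells derived from patients, with or without rucaparib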 (primary screen)", "system": "human ovarian carcinoma lines grown from tumours: OCI-P5x (papillary serous) and OCI-C5x (clear cell)", "knock-down reagent": "siRNA pool against human genes, 1.25 pmol siRNA per well", "duration": "72 h or 96 h, depending on the cell culture", "conditions": "rucaparib 20 µM (about IC30) or vehicle, present until read-out", "measurement": "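ATP luminescence measured at 72 or 96 h according to the culture, then normalised and expressed as percent viability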", "direction": "viability, normalised: higher = more viable cells remaining", "active means": "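a well counts as a hit if its normalised viability is under 80 percent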", "meaning of the calls": "active = viability under 80%; inactive = viability 80% or more", "note": "Here is an unselected part of about 2,100 deposited reagents. 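Calls flag viability under 80% in either arm, not effects specific to rucaparib; the reference for percent is not stated.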 Not given: the 100% reference."}
{"gene knocked down":"PHF19 (PHD finger protein 19)","PubChem SID":"SID405527147","rucaparib or vehicle":"Rucaparib","cell line":"OCI-C5x (clear cell)","technical replicate":"1","viability, normalised (%)":38,"activity call":"active"}
{"gene knocked down":"PHF19 (PHD finger protein 19)","PubChem SID":"SID405527147","rucaparib or vehicle":"Rucaparib","cell line":"OCI-C5x (clear cell)","technical replicate":"2","viability, normalised (%)":47.6,"activity call":"active"}
{"gene knocked down":"PHF19 (PHD finger protein 19)","PubChem SID":"SID405527147","rucaparib or vehicle":"Rucaparib","cell line":"OCI-C5x (clear cell)","technical replicate":"3","viability, normalised (%)":34.2,"activity call":"active"}
{"gene knocked down":"PHF19 (PHD finger protein 19)","PubChem SID":"SID405527147","rucaparib or vehicle":"Rucaparib","cell line":"OCI-P5x (serous)","technical replicate":"1","viability, normalised (%)":29.4,"activity call":"active"}
{"gene knocked down":"PHF19 (PHD finger protein 19)","PubChem SID":"SID405527147","rucaparib or vehicle":"Rucaparib","cell line":"OCI-P5x (serous)","technical replicate":"2","viability, normalised (%)":38.5,"activity call":"active"}
{"gene knocked down":"PHF19 (PHD finger protein 19)","PubChem SID":"SID405527147","rucaparib or vehicle":"Rucaparib","cell line":"OCI-P5x (serous)","technical replicate":"3","viability, normalised (%)":42,"activity call":"active"}
{"gene knocked down":"PHF19 (PHD finger protein 19)","PubChem SID":"SID405527147","rucaparib or vehicle":"Vehicle","cell line":"OCI-C5x (clear cell)","technical replicate":"1","viability, normalised (%)":39.2,"activity call":"active"}
{"gene knocked down":"PHF19 (PHD finger protein 19)","PubChem SID":"SID405527147","rucaparib or vehicle":"Vehicle","cell line":"OCI-C5x (clear cell)","technical replicate":"2","viability, normalised (%)":39.8,"activity call":"active"}
{"gene knocked down":"PHF19 (PHD finger protein 19)","PubChem SID":"SID405527147","rucaparib or vehicle":"Vehicle","cell line":"OCI-C5x (clear cell)","technical replicate":"3","viability, normalised (%)":37.2,"activity call":"active"}
{"gene knocked down":"PHF19 (PHD finger protein 19)","PubChem SID":"SID405527147","rucaparib or vehicle":"Vehicle","cell line":"OCI-P5x (serous)","technical replicate":"1","viability, normalised (%)":46.8,"activity call":"active"}
{"gene knocked down":"PHF19 (PHD finger protein 19)","PubChem SID":"SID405527147","rucaparib or vehicle":"Vehicle","cell line":"OCI-P5x (serous)","technical replicate":"2","viability, normalised (%)":51.1,"activity call":"active"}
{"gene knocked down":"PHF19 (PHD finger protein 19)","PubChem SID":"SID405527147","rucaparib or vehicle":"Vehicle","cell line":"OCI-P5x (serous)","technical replicate":"3","viability, normalised (%)":70.4,"activity call":"active"}
